Measurements published in PubChem BioAssay AID330 (DTP/NCI, 2004).
The list is a part of this screen's results and no random one: it is rich in T/C values a quarter to a half above the control, in often repeated tests (any T/C) and in doses without a T/C. Further doses and runs are listed elsewhere. T/C gives the treated animals as a percentage of the vehicle group. Some entries give survivors of the animals treated and no T/C: the source files T/C as zero there, which appears to mark a toxic dose or a test without result, not a measured value. Some survivor counts are full or nearly so, which does not show that the dose was tolerated: the source hardly ever lists a survival T/C far under the control, and the zero likely stands for such cases as well. Survivors were counted at the toxicity check, usually on the fifth day, unless a day is given; later deaths do not show. Schedule codes are those of the source, taken here to give the interval after Q, in days (D) or hours (H), and the number of doses after X. For survival time, this PubChem deposit counts one and a half times the control or more as active, and values a quarter to a half above the control carry no call in these data; other NCI protocols may use other cut-offs.

Test system: P388 leukemia ip, CD2F1 mice, survival T/C
Assay: NCI In Vivo Anticancer Drug Screen. Data for tumor model P388 Leukemia (intraperitoneal) in CD2F1 (CDF1) mice
Conditions: T/C endpoint: median survival time, higher T/C = longer survival

Q: Which survivor count (dose: 100.0 mg/kg/injection, schedule: Q01DX005 (ip), vehicle: saline with Tween-80) does the source give for `CC(C)C(NC(=O)C(Cc1ccccc1)NC(=O)OCc1ccccc1)C(=O)OCc1ccccc1` (stereo not given) here?
A: 5 of 5

Q: Which results are given for `CC(C)([CH2][Sn]([CH3])([Cl])[Cl])c1ccccc1`?
A: survivor count (dose: 12.5 mg/kg/injection, schedule: Q04DX003 (ip), vehicle: saline with Tween-80): 3 of 6; T/C (dose: 12.5 mg/kg/injection, schedule: Q04DX003 (ip), vehicle: saline): 129 % of control; survivor count (dose: 25.0 mg/kg/injection, schedule: Q04DX003 (ip), vehicle: saline): 3 of 6; survivor count (dose: 100.0 mg/kg/injection, schedule: Q04DX003 (ip), vehicle: saline with Tween-80): 2 of 6; survivor count (dose: 200.0 mg/kg/injection, schedule: Q04DX003 (ip), vehicle: saline with Tween-80): 0 of 6; survivor count (dose: 400.0 mg/kg/injection, schedule: Q04DX003 (ip), vehicle: saline with Tween-80): 0 of 6

Q: For `CCOP(OCC)SSCn1nc2ccc3ccccc3n2c1=O`, which survivor count (dose: 60.0 mg/kg/injection, schedule: Q01DX005 (ip), vehicle: saline with Tween-80) is on record?
A: 6 of 6

Q: What about the survivor count (dose: 120.0 mg/kg/injection, schedule: Q01DX005 (ip), vehicle: saline with Tween-80) of the same compound?
A: 1 of 6

Q: What about the survivor count (dose: 240.0 mg/kg/injection, schedule: Q01DX005 (ip), vehicle: saline with Tween-80) of the same compound?
A: 0 of 6
